Reference: PubChem BioAssay AID1487 (National Center for Advancing Translational Sciences (NCATS), 2009)
Some of the results follow. Shown are side measurements of this screen, not its main read-out; they come without a call. The list favours compounds with an active or inconclusive main result. The note in brackets gives the kind of curve behind each potency; many fits are weak.

Experiment: qHTS Assay for Modulators of Lamin A Splicing
Conditions: HeLa LMNA splicing GFP/RFP minigene ratio, 48 h
Summary of the method: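 S3 HeLa stable clones carrying a lamin A-EGFP splicing minigene plus DsRed2 were seeded at 600 cells/well in Opti-MEM with 2% FBS, pin-dosed and incubated 48 h at 37°C. Acumen cytometry (488 nm) gave the GFP/RFP total-intensity ratio.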

[1] = measured here: GFP splicing reporter channel
[2] = measured here: RFP viability control channel

Structure (SMILES) | AC50 [1] | AC50 [2]
Brc1cc2c(cc1/C=N/Nc1nc3ccccc3s1)OCO2 | 22.4 µM [falling, single point] | 35.5 µM [falling, partial curve]
COc1ccccc1NC(=O)C1=C(C)N(c2ccccc2)C(=S)NC1c1cccc(C(F)(F)F)c1 (configuration not stated) | 15.8 µM [falling, single point] | 14.1 µM [falling, partial curve]
COc1ccc(C(C)=O)c2c1OCCO2 |  | 35.5 µM [rising, single point]
CCC(C)(C)NC(=O)CC(c1ccc(OC)cc1)n1cccc1 (configuration not stated) | 35.5 µM [rising, single point] | 35.5 µM [rising, single point]
COc1cc(/C=C\C(=O)N2CCC=CC2=O)cc(OC)c1OC | 3.55 µM [falling, partial curve] | 3.16 µM [falling, partial curve]
CCc1nc(N2CCCCC2)c2oc3ccccc3c2n1 | 11.2 µM [rising, single point] | 11.2 µM [rising, single point]
CCOc1ccc(C(=O)Nc2nnc(SCc3cc(=O)c4cc(C)ccc4[nH]3)s2)cc1 | 1.78 µM [rising, full curve, poor fit] | 
CCOc1cc(S(=O)(=O)Nc2cc(C)cc(C)c2)ccc1Cl |  | 12.6 µM [rising, single point]
C=CCC1(Cl)C(=O)C(Cl)=C(N2CCOCC2)C1(OC)OC (configuration not stated) | 0.631 µM [falling, partial curve] | 0.316 µM [falling, full curve, poor fit]
CC1(C(=O)NC(=S)NNC(=O)c2ccncc2)CCCCC1 |  | 8.91 µM [rising, partial curve, poor fit]
CCN(CC)S(=O)(=O)c1ccc2c(c1)nc(CN(C)C(=O)c1cccc(Cl)c1)n2C |  | 2 µM [falling, partial curve]
Cc1ccc(N2CC(O)=C(c3ccccc3)C2=N)cc1 |  | 0.00316 µM [rising, full curve, poor fit]
Cc1cc(Sc2nc(N)ncc2[N+](=O)[O-])ncn1 | 5.01 µM [falling, full curve, poor fit] | 7.08 µM [falling, partial curve, poor fit]
CC(C)N1CCN(Cc2ccc3nsnc3c2)CC1CCO (configuration not stated) | 0.251 µM [falling, full curve, poor fit] | 0.891 µM [falling, full curve]
CCCCCCNS(=O)(=O)c1ccc(OC)c(OC)c1 | 25.1 µM [rising, single point] | 22.4 µM [rising, single point]
COc1cc(/C=N/N=C2/C(=O)Nc3ccccc32)cc(OC)c1O |  | 6.31 µM [rising, full curve]
O=C(Nc1nnc(-c2ccccn2)o1)c1ccc(Br)cc1 |  | 12.6 µM [rising, partial curve, poor fit]
COc1ccc(-n2c(SC(C)C(=O)Nc3ncc(Cl)cc3Cl)nc3ccccc32)cc1 (configuration not stated) |  | 0.794 µM [rising, partial curve]

2 entries from above in a different format:

| Structure (SMILES) | AC50 [1] | AC50 [2] |
| --- | --- | --- |
| COc1ccccc1NC(=O)C1=C(C)N(c2ccccc2)C(=S)NC1c1cccc(C(F)(F)F)c1 (configuration not stated) | 15.8 µM [falling, single point] | 14.1 µM [falling, partial curve] |
| Cc1cc(Sc2nc(N)ncc2[N+](=O)[O-])ncn1 | 5.01 µM [falling, full curve, poor fit] | 7.08 µM [falling, partial curve, poor fit] |

More compounds

Structure (SMILES) | AC50 [1] | AC50 [2]
O=C1CN2NC(=S)N(c3ccc(Cl)cc3)C2=CN1c1ccc(Cl)cc1 | 2.51 µM [falling, partial curve] | 1.78 µM [falling, full curve]
CC(C)c1ccc(OC(=O)c2cc(-c3ccc4c(c3)OCCO4)on2)cc1 |  | 10 µM [falling, partial curve, poor fit]
C[C@]12CCC3c4ccc(OC(=O)c5ccccc5)cc4CCC3C1CCC2=O (some centres not stated) | 11.2 µM [rising, single point] | 
O=C(N/N=C/c1cccc([N+](=O)[O-])c1)C1CC(=O)N(c2ccc(Br)cc2)C1 (configuration not stated) | 17.8 µM [rising, partial curve, poor fit] | 12.6 µM [rising, partial curve]
Oc1ccc(Cl)c2cccnc12 | 1 µM [falling, full curve, poor fit] | 1.26 µM [falling, full curve]
NC(=S)N/N=C1\CC(n2nnnc2-c2ccccc2Cl)C2COC1O2 (configuration not stated) |  | 35.5 µM [rising, single point]
Cn1cc(Br)c(C(=O)Nc2nccs2)n1 | 5.01 µM [rising, single point] | 1.58 µM [rising, partial curve]
CCNc1ncc2nc(C)c(=O)n(Cc3cccs3)c2n1 | 6.31 µM [falling, partial curve, poor fit] | 
CC1(C)CC(=O)C2=C(C1)N=C1SCCC(=O)N1C2c1ccccc1 (configuration not stated) | 5.62 µM [rising, single point] | 
Cc1ccc(OCC(=O)NCC(=O)OCc2cc(=O)n3nc(C)sc3n2)cc1 | 7.08 µM [falling, partial curve, poor fit] | 0.0562 µM [falling, full curve]
Cc1cc(C(=O)CSc2nc3ccc(Cl)cc3[nH]2)c(C)n1C | 17.8 µM [rising, single point] | 
Cc1cc(C)n(S(=O)(=O)/C=C/c2ccccc2)n1 |  | 5.62 µM [rising, single point]
O=C(Nc1nc2nccc(-c3ccccc3)n2n1)c1ccc(F)cc1 |  | 0.355 µM [falling, full curve]
COc1ccc([N+](=O)[O-])cc1NC(=O)CCN1CCN(c2ccccc2OC)CC1 | 22.4 µM [falling, single point] | 20 µM [falling, single point]
Cc1ccc(S(=O)(=O)NC(CCc2ccccc2)CC(=O)C(C)(C)C)cc1 (configuration not stated) | 35.5 µM [rising, single point] | 35.5 µM [rising, single point]
Cc1ccc2c(C)[nH]c(=O)cc2c1 |  | 20 µM [rising, single point]
O=C(CSc1cccc[n+]1[O-])c1ccc(-c2ccccc2)cc1 |  | 35.5 µM [rising, partial curve]
CCn1cnc2cc(NCc3cccs3)ccc21 | 3.55 µM [falling, full curve] | 
